These are yes or no findings as the source states them, for the method shown. Binding seen in cells or lysates may run through a third protein. Some results given as binding are weak or reduced against the parent protein; the word gives no strength.
Assays:
[1] = biological target: Myc-tagged human LRRK2 (human) (UniProt Q5S007); assay: co-IP; tagged LRRK2 and Rip2 overexpressed in HEK293T cells; lysate in IP buffer (50 mM Tris-HCl pH 7.4, 150 mmol/L NaCl, 1% NP-40, 2 mmol/L EDTA); immunoprecipitated with anti-Myc or anti-GFP beads, 4°C; immunoblot
[2] = biological target: Human Rip2 in pEGFP-N1 vector (GFP-tagged Rip2) (human) (UniProt O43353); assay: as above
[3] = biological target: endogenous LRRK2 (THP-1 cells) (human (endogenous in THP-1)) (UniProt Q5S007); assay: co-IP; endogenous proteins in THP-1 cells, mock-treated or treated with 5 ng/mL LPS and 10 μg/mL MDP for 4 h; immunoprecipitated with anti-LRRK2 antibody, Rip2 immunoblotted; IP buffer (50 mM Tris-HCl pH 7.4, 150 mmol/L NaCl, 1% NP-40, 2 mmol/L EDTA), 4°C

Protein sequences, listed by entry. Tags and fused reporters are not part of them.
UniProt Q5S007: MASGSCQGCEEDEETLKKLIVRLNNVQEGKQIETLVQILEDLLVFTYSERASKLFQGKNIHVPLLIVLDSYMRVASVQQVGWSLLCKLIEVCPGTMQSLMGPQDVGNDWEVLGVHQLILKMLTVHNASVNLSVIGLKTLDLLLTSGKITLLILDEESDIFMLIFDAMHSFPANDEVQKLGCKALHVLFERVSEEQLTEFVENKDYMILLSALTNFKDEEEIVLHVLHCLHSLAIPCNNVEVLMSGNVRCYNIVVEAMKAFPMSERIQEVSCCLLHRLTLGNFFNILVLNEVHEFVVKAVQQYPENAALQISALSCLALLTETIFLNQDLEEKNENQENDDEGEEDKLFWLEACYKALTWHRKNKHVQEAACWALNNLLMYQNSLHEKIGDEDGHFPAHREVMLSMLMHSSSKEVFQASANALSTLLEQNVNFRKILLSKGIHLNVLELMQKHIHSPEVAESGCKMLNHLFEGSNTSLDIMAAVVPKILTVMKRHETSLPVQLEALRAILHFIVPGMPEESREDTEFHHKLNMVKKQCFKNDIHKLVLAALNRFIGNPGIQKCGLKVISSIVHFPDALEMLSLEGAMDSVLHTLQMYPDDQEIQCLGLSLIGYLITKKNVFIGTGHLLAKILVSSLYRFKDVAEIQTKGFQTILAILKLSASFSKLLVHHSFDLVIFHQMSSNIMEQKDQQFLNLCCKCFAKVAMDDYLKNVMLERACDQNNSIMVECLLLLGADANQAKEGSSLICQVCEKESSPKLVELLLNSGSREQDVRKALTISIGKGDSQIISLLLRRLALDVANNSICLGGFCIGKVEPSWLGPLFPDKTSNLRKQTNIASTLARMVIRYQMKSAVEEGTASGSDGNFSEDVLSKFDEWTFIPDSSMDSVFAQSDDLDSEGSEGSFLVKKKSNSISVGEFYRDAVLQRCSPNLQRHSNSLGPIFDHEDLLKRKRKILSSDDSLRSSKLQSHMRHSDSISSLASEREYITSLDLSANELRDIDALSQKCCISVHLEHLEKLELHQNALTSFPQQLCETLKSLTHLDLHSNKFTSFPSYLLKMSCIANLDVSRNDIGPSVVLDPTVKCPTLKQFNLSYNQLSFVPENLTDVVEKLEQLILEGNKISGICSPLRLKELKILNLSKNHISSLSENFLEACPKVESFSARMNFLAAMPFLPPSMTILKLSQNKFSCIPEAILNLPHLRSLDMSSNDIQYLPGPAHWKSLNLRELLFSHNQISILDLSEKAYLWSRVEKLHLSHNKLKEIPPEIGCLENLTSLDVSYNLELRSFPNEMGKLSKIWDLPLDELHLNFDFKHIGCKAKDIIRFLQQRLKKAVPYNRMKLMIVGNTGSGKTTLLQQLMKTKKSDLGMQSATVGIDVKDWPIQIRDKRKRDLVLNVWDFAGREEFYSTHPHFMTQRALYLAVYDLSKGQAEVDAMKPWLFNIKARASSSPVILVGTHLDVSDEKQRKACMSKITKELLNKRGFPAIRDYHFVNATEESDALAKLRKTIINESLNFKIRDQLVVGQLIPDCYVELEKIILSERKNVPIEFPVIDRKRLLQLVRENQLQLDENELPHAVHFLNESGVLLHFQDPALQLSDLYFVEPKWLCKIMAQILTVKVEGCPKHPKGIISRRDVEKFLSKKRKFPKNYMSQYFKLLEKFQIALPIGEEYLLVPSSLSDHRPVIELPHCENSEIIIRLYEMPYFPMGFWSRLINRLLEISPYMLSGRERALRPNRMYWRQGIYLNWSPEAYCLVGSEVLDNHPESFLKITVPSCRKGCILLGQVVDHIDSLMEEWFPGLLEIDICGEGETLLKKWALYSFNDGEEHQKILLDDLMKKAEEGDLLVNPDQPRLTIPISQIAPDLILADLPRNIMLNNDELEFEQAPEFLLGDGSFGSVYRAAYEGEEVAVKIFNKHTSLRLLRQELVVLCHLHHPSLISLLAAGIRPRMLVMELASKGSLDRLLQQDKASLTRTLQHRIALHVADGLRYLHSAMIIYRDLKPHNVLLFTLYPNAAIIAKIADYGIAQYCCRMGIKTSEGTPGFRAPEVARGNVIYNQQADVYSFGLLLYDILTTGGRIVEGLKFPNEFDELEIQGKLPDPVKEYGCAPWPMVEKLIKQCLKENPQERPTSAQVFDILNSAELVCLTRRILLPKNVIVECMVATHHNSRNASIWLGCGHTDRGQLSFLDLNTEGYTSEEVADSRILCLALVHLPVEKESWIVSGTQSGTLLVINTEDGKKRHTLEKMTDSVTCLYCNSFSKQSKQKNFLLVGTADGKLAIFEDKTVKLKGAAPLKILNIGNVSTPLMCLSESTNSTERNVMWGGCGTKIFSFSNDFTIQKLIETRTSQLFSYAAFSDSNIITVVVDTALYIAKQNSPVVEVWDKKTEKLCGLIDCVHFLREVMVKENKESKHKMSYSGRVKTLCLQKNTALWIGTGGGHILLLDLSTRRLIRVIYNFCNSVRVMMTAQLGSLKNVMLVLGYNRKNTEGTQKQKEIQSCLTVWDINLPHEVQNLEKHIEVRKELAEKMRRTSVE
UniProt O43353: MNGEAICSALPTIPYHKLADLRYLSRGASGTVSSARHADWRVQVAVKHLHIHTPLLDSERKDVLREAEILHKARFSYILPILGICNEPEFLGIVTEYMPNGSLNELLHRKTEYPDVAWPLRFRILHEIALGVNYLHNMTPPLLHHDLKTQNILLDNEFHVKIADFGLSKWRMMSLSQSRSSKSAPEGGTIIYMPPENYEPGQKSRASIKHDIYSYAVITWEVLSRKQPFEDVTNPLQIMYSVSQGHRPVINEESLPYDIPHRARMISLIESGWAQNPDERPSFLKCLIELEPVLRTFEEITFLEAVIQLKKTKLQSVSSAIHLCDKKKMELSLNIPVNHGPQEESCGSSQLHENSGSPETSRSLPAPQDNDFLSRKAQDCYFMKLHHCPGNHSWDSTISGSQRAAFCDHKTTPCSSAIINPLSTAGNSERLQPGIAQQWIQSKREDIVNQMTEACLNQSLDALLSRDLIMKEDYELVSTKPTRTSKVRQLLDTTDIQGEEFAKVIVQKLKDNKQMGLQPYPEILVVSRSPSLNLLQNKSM

For “Human Rip2 in pEGFP-N1 vector (GFP-tagged Rip2) (from UniProt O43353 1-540)”, the binding [1] was “binds”.

In the case of “Myc-tagged human LRRK2 (from UniProt Q5S007 1-2527)”, the binding [2] is reported as “binds”.

“endogenous Rip2 (THP-1 cells) (from UniProt O43353 1-540)” was tested, and the binding [3] was “binds”.

Reference: PMC5233611
